The chains behind the UniProt entries cited, without tags or fusion partners. Residues count along the entry.
UniProt P02787, residues 20-698: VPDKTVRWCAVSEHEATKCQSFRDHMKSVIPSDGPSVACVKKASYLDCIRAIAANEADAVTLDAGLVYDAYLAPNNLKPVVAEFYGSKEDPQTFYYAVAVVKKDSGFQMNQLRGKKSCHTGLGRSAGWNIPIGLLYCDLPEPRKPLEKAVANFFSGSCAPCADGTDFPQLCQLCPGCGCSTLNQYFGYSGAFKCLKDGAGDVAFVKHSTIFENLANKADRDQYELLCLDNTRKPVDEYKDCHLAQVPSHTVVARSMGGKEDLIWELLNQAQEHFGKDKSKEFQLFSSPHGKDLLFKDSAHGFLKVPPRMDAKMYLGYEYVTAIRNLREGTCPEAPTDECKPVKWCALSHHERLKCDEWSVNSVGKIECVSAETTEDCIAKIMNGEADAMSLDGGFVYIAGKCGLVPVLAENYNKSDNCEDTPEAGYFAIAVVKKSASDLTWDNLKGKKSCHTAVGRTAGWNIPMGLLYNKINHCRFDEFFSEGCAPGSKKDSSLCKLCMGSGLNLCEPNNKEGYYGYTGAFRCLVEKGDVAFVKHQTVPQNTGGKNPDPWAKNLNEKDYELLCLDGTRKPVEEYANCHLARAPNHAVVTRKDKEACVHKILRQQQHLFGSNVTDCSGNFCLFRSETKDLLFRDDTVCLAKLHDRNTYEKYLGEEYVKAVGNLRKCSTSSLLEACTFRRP
UniProt P68871: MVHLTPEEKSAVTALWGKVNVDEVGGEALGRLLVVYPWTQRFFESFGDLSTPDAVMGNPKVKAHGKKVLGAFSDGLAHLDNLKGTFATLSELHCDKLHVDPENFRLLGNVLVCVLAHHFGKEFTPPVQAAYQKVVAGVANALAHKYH
UniProt P0CG38: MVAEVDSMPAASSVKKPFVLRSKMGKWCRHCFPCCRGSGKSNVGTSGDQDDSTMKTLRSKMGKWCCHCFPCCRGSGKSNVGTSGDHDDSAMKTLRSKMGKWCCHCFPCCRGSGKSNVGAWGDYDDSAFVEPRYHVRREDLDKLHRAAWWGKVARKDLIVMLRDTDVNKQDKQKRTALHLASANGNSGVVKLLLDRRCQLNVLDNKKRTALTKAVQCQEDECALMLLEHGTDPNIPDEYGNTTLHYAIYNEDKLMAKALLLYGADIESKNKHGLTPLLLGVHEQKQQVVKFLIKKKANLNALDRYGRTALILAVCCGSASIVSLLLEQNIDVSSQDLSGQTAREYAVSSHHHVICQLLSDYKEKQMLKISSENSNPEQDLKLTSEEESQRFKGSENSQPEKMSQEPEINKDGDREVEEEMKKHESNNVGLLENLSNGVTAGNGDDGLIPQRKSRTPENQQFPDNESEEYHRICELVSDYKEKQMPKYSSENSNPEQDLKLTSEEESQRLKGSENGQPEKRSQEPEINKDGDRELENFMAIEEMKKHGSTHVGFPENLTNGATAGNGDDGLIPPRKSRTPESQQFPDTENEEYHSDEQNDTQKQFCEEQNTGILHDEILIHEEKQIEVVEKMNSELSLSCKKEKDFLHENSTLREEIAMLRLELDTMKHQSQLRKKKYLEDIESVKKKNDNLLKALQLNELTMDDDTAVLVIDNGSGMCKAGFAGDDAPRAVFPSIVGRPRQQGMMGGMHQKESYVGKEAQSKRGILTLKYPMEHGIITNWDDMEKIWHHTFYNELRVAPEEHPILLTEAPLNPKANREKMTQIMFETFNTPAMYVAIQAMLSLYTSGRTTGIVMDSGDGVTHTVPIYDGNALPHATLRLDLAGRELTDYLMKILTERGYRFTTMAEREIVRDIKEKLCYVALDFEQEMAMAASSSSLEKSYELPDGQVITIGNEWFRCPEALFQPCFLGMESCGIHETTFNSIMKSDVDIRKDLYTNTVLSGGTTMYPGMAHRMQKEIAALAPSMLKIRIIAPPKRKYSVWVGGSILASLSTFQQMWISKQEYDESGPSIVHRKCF
UniProt P0CG39: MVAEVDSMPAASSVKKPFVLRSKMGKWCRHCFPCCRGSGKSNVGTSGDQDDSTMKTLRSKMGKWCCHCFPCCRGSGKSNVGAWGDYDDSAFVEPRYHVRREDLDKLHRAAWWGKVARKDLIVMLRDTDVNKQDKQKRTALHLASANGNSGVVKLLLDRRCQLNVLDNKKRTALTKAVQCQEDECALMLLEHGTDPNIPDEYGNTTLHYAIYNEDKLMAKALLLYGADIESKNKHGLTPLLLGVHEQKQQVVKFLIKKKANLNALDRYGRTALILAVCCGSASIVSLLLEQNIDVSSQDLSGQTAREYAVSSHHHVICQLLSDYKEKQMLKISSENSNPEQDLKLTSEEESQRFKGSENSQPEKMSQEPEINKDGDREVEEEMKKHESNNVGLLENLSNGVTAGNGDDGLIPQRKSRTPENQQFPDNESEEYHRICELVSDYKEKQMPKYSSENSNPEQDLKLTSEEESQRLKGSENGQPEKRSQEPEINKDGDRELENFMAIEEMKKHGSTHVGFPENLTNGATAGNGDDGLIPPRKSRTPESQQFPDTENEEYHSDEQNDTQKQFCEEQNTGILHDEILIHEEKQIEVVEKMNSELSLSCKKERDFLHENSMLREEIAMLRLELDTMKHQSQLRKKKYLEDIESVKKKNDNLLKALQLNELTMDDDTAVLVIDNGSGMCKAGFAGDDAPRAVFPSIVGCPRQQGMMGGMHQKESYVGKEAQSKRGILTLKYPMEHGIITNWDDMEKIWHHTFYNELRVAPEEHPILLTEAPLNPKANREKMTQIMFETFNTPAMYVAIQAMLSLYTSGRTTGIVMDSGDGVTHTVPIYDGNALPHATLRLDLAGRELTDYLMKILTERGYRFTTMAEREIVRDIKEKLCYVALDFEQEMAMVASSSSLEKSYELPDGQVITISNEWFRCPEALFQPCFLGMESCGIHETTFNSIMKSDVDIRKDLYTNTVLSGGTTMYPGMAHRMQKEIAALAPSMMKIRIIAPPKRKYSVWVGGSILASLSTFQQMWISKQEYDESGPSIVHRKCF
UniProt P0DMV8: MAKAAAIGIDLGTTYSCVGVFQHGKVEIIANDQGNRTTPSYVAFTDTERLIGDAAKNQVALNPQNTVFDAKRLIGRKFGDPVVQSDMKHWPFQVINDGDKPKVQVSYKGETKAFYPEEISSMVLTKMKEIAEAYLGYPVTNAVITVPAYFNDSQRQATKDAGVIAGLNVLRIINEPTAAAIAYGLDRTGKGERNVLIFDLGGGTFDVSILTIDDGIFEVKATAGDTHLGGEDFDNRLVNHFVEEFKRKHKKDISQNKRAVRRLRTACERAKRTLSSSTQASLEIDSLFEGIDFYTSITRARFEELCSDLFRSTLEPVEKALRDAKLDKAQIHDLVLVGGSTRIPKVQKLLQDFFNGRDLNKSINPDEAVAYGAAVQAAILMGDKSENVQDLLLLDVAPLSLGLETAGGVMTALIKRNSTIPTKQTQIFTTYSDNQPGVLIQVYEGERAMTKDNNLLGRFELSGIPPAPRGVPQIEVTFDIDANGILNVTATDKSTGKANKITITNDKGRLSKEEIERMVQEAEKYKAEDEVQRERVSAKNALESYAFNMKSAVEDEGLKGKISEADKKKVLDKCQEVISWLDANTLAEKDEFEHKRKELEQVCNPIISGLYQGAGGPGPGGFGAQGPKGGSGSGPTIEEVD
UniProt P11142: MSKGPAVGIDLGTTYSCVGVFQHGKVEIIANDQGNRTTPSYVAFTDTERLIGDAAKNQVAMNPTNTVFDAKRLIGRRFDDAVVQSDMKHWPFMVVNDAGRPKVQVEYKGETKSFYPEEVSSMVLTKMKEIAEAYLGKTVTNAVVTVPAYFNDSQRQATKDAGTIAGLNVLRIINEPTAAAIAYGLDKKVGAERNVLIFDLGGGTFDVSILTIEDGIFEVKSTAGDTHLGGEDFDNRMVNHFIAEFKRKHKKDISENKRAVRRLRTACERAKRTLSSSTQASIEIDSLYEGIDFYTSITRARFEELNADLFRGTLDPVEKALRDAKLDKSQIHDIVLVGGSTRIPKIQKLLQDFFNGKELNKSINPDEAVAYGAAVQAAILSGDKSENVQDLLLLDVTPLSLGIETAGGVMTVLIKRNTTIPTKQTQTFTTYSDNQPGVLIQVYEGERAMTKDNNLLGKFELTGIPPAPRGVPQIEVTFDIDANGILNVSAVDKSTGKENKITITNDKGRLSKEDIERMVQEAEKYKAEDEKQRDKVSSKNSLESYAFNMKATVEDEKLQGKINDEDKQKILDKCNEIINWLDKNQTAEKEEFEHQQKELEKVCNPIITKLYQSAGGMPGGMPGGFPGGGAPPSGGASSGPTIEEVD
UniProt Q7Z406: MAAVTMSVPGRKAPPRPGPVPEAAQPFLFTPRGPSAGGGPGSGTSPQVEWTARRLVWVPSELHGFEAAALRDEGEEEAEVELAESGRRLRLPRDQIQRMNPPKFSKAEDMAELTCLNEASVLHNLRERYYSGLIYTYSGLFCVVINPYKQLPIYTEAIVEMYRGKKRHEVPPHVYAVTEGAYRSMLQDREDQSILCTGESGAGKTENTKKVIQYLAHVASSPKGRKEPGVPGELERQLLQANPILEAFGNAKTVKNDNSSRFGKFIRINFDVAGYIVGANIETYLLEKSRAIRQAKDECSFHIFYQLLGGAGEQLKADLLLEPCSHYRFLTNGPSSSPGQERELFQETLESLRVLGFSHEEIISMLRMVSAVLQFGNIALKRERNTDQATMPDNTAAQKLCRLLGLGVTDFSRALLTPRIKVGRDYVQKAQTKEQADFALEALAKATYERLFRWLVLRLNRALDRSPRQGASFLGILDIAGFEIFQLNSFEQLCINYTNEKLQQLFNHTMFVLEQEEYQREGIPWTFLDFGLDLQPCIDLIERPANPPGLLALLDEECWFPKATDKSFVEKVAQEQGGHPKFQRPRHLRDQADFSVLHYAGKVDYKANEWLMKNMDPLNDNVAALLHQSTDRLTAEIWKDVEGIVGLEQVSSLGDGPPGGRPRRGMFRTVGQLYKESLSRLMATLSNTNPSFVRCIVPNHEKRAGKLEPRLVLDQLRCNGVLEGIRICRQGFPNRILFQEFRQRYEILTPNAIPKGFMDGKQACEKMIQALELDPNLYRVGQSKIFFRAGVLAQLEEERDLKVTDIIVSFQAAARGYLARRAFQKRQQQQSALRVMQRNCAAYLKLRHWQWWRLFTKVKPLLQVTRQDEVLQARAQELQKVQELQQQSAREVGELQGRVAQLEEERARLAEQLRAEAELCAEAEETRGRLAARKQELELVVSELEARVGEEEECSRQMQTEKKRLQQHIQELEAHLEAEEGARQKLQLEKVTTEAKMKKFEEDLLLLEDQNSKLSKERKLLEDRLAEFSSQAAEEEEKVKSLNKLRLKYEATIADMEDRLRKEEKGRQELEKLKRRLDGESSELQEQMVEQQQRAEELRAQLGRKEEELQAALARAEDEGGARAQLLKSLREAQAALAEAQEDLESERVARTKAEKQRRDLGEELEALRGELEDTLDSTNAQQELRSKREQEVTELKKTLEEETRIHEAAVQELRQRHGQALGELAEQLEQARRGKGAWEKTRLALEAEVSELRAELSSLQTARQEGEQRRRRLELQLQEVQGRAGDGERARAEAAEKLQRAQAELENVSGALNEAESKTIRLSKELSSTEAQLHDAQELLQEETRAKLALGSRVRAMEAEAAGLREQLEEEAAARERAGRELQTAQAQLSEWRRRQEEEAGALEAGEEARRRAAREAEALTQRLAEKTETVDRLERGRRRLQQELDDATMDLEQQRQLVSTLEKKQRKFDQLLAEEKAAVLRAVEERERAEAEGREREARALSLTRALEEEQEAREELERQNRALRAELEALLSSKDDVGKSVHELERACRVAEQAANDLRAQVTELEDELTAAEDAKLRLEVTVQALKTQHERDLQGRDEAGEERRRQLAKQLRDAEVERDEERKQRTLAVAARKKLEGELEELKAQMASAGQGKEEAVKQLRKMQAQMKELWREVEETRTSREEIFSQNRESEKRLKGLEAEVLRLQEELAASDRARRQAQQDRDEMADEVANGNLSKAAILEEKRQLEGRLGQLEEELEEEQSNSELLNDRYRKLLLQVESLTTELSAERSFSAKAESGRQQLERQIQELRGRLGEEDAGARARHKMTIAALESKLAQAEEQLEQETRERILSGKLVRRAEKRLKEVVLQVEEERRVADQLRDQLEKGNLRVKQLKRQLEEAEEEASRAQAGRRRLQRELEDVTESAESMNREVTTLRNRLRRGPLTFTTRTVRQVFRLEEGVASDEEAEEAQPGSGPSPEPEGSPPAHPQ

According to article PMC8201403:

Assays:
Assay in all cases: affinity purification with mass spectrometry; endogenous LXN, RPL29, FAU, AHSG, ALB and TF each immuno-precipitated with its antibody; gel bands digested with trypsin, Nano-LC ESI-QTOF-MS; two biological replicates; candidates narrowed with STRING
[1] = target: Serotransferrin (TF), endogenous (human (endogenous in Bel-7402)) (UniProt P02787)
[2] = target: T1, Alpha 2-HS glycoprotein (AHSG), endogenous (human (endogenous in Bel-7402)) (UniProt P02765)
T1 sequence: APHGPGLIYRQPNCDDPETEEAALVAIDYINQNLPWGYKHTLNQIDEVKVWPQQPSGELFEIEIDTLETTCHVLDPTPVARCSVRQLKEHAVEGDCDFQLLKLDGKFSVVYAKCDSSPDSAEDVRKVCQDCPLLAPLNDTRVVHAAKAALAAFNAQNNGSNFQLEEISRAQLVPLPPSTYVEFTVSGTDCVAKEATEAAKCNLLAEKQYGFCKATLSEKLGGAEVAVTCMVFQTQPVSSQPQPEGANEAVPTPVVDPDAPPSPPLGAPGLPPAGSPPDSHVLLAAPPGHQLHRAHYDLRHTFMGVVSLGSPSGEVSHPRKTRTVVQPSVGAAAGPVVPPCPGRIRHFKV

[3] = target: T2, Latexin (LXN), endogenous (human (endogenous in Bel-7402)) (UniProt Q9BS40)
T2 sequence: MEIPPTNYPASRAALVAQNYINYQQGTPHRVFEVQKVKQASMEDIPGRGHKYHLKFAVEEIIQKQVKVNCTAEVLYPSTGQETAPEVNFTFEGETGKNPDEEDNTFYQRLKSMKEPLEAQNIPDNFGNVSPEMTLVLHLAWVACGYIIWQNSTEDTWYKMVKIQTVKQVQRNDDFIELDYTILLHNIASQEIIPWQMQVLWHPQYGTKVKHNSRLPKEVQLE

[4] = target: Albumin (ALB), endogenous (human (endogenous in Bel-7402)) (UniProt P02768)

Measured: binding

HBB, endogenous (from UniProt P68871 1-147)
binds: [1] | [2]

POTE Ankyrin domain family member E (POTEE), endogenous (from UniProt Q6S8J3 1-1075)
binds: all assays above

POTEI, endogenous (from UniProt P0CG38 1-1075)
binds: all assays above

POTEJ, endogenous (from UniProt P0CG39 1-1038)
binds: all assays above

heat shock protein family A member 1A (HSPA1A), endogenous (from UniProt P0DMV8 1-641)
binds: all assays above

heat shock protein family A member 8 (HSPA8), endogenous (from UniProt P11142 1-646)
binds: all assays above

heat shock protein family A member 9 (HSPA9), endogenous (from UniProt P38646 47-679)
binds: all assays above

myosin heavy chain 14 (MYH14), endogenous (from UniProt Q7Z406 1-1995)
binds: all assays above

Results are given in words; binding and its absence hold for the method and conditions named. Binding seen in cells or lysates may run through a third protein. A yes stands for co-enrichment or nearness to the bait. Other partners may have been found.
